{
  "sequences": {"note": "Amino acid sequences for entries named in this document (tags omitted). Residues count along the entry.", "UniProt P12830, residues 155-882": "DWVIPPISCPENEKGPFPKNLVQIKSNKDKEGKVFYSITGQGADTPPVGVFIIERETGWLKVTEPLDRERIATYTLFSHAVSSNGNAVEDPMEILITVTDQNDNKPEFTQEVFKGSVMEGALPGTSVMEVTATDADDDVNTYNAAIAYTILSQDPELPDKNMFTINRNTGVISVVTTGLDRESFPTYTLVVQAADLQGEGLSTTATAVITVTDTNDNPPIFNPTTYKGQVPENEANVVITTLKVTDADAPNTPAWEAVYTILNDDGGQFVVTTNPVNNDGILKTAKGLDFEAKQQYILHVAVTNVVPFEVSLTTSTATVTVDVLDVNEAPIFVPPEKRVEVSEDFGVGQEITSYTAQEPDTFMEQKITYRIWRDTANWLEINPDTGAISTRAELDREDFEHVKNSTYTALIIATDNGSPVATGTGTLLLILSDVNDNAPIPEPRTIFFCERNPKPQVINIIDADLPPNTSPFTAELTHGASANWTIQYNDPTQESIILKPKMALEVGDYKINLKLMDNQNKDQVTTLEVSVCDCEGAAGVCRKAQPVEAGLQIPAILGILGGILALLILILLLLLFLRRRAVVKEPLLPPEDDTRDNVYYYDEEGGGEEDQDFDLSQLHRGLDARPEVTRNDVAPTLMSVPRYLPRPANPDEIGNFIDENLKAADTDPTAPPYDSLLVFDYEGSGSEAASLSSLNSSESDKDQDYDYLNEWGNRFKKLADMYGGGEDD", "UniProt P46940, residues 2-1657": "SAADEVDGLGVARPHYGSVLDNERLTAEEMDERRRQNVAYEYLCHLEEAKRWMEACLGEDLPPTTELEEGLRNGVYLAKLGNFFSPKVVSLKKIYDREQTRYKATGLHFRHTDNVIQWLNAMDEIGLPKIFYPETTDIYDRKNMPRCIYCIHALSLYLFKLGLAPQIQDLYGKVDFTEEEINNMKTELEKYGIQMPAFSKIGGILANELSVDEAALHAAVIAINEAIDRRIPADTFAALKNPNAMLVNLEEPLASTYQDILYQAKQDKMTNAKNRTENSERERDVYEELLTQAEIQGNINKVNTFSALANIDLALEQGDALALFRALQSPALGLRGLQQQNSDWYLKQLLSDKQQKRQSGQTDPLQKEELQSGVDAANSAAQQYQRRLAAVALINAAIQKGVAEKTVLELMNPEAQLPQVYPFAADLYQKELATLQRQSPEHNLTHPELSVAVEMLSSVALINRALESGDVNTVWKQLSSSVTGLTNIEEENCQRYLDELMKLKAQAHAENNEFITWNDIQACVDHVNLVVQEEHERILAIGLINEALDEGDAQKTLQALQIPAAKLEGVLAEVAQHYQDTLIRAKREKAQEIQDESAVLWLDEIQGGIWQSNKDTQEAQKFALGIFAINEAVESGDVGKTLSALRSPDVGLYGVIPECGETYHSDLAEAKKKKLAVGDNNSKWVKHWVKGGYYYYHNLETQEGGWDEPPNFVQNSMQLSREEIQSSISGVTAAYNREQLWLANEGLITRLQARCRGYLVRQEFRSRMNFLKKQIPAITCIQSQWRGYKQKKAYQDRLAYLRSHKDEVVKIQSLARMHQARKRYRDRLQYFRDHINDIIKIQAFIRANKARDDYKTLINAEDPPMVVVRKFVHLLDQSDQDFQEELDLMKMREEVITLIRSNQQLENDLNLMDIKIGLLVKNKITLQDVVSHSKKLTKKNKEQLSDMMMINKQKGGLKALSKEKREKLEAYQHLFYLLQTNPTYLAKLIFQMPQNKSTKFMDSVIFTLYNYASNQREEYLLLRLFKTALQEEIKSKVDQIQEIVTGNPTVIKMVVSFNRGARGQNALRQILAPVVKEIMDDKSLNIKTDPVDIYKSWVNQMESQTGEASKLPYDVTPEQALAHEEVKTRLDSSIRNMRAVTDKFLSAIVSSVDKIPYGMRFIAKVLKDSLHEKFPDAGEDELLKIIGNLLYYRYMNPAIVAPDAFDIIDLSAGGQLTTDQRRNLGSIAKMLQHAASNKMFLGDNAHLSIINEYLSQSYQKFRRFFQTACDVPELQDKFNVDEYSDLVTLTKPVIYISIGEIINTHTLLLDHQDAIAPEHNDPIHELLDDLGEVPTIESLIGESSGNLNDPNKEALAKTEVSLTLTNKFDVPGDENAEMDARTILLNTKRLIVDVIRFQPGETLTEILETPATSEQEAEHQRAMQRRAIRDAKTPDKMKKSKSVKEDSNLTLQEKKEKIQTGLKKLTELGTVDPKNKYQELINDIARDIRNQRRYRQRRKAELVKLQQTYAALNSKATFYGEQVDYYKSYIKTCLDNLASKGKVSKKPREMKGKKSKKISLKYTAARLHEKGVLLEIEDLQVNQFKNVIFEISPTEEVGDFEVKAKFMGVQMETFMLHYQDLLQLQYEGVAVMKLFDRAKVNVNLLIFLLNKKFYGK"},
  "source": "patent US20130315930A1",
  "target": "E-cadherin (human (endogenous in human SW1736 cells)) (UniProt P12830)",
  "assay": "co-immunoprecipitation from SW1736 cell lysates with anti-IQGAP1 antibody, Western blotting",
  "note": "No constants are given. Whether binding was seen depends on the method and setting. In cells and extracts the contact can be indirect. Some entries that bind do so weakly or less than the wild type.",
  "data": [
    {"substance": "IQGAP1 (IQ motif containing GTPase activating protein 1) (from UniProt P46940 2-1657)", "values": [
      {"measurement": "binding", "result": "binds"}
    ]}
  ]
}
